Experimental findings from the supplement of paper PMC10338343 are described below.

± gives the standard deviation. The list shows a part of the results, in another mix than the full data. Many of these values have a large error.

This assay has as its system EfPiwi piRISC loaded with piRNA #1 (26 nt). The assay is described as follows: pre-steady-state target cleavage rate (min^-1); guide: piRNA #1 5'p-UGAGGUAGUAGGUUGUAUAGUAUCCA; MIWI and MILI are mouse PIWI proteins and EfPiwi is from a freshwater sponge; tags in brackets are library labels; higher = faster piRNA-guided slicing of the target. The following applies: auxiliary factor: 500 nM Ephydatia muelleri Gtsf1. In a few lines: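 The pre-steady-state cleavage rate was derived from a burst-and-steady-state fit of Cleave-'n-Seq data. For these assays, 1 nM active affinity-purified piRISC loaded with a single synthetic guide was mixed with […] a transcribed, DNA-blocked target RNA library in HEPES–potassium acetate buffer at 33 °C, with or without 500 nM GTSF1 partner protein, for 0–8 or 0–960 min. Sequencing counts of uncleaved targets were normalised to depth and to weakly complementary targets, and k3 was capped at 0.0001 min^-1 after three trials were pooled.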
With GGAGACCUAACUAUACAACCUACUUCGUCA, the “pre-steady-state target cleavage rate” value was 0.00192 ± 0.0033.

Consider GGAGACCUUACUAUACAACCUAGUACCUCA, for which the “pre-steady-state target cleavage rate” value came to 0.00384 ± 0.0019.

With GGAGUGGAUAGUAUACAACCUACUUCCUCA, the “pre-steady-state target cleavage rate” value is 0.00264 ± 0.0019.

Turning to GGAGACCUAUGUAUAACAACCUACUACCUCA, the “pre-steady-state target cleavage rate” value was 0.00261 ± 0.0041.

Regarding GGAGACCUUACAUAUACAACCUACUACCUCA, the “pre-steady-state target cleavage rate” value was determined as 0.00546 ± 0.0041.

For GGAGACCUAUGAUAUGUACCUACUAGGUCA, the “pre-steady-state target cleavage rate” value was found to be 0.000465 ± 0.0095.

Turning to GGAGACCUAACUAUACCACCUACUACCUCA, the “pre-steady-state target cleavage rate” value stood at 0.0066 ± 0.0031.

Regarding GGAGACGAAACAAUACAACCUACUACCUCA, the “pre-steady-state target cleavage rate” value was determined as 0.00789 ± 0.0038.

Regarding GGAGACGAUACUAAUGAACCUACUACCUCA, the “pre-steady-state target cleavage rate” value was determined as 0.00034 ± 0.0067.

In the case of GGAGACCUAUGAUAUGUUGGUUCUACCUCA, the “pre-steady-state target cleavage rate” value amounted to 0.000145 ± 0.014.

Consider GGAGAGGAUACUGUACAACCUACUACCUCA, for which the “pre-steady-state target cleavage rate” value turned out to be 0.0789 ± 0.029.

As for GGAGAGGAUACUAUACAACCUACAUACCUCA, the “pre-steady-state target cleavage rate” value stood at 0.00353 ± 0.0021.

As to GGAGACCUAUCUUUACAACCUAGUACCUCA, the “pre-steady-state target cleavage rate” value is 0.00302 ± 0.0036.

Regarding GGAGACCAUACUAUUCAACCUACAACCUCA, the “pre-steady-state target cleavage rate” value was 0.00131 ± 0.0049.

For GGAGACCUAUCUAUCACAACCUACUACCUCA, the “pre-steady-state target cleavage rate” value is 0.00369 ± 0.0043.

As for GGAGACCUUACUAUACAACCAUCUACCUCA, the “pre-steady-state target cleavage rate” value is 0.0026 ± 0.0037.

With GGAGUGGAUAGUAUACAUCCUACUACCUCA, the “pre-steady-state target cleavage rate” value stood at 0.00444 ± 0.0024.

For GGAGACCUAUCUAUACAACCUUCUACGUCA, the “pre-steady-state target cleavage rate” value was determined as 0.00205 ± 0.0049.

GGAGACGAUACUAUUCAACCUACUACCACA: the “pre-steady-state target cleavage rate” value was 0.00322 ± 0.0017.

Regarding GGAGAGGAUACUAUACUACCUACUACCACA, the “pre-steady-state target cleavage rate” value was 0.00174 ± 0.002.

As for GGAGACCUAUGAUAUGUUGCUACAUCCUCA, the “pre-steady-state target cleavage rate” value was found to be 0.000722 ± 0.0047.

With GGAGACCUAACUAUACAACCUACUACCGCA, the “pre-steady-state target cleavage rate” value stood at 0.00244 ± 0.0036.

In the case of GGAGACCUUACUAAACAACCUACUACCUGA, the “pre-steady-state target cleavage rate” value was determined as 0.00102 ± 0.0046.

On to GGAGACGAUACUAUACUUGCUACUACCUCA, for which the “pre-steady-state target cleavage rate” value is 0.00176 ± 0.0051.

For the sequence GGAGACCUUACUAUACAACCUACUACGAGA, the “pre-steady-state target cleavage rate” value is 0.00452 ± 0.0025.

Turning to GGAGACCAUACUAUAGAAGCUACUACCUCA, the “pre-steady-state target cleavage rate” value turned out to be 0.00159 ± 0.0058.

Regarding GGAGACCUAUCUAUACAUGCUACUACCUCA, the “pre-steady-state target cleavage rate” value came out at 0.00132 ± 0.0035.

For the sequence GGAGACCAUACUAUACAACGUACUUCCUCA, the “pre-steady-state target cleavage rate” value was 0.00544 ± 0.0032.

As for GGAGAGGAUACUAUACUACCUACUAGCUCA, the “pre-steady-state target cleavage rate” value came out at 0.00173 ± 0.0021.

Take GGAGAGGAUACUAUACAACCUACUACCUAA: the “pre-steady-state target cleavage rate” value was found to be 0.0131 ± 0.0058.

Regarding GGAGACCAUACUAUACAACCUUCAACCUCA, the “pre-steady-state target cleavage rate” value came to 0.000693 ± 0.005.

For GGAGACCUAUGUAUACAUCCUUCUACCUCA, the “pre-steady-state target cleavage rate” value is 0.000959 ± 0.0051.

Turning to GGAGACCUUACUAAACAACGUACUACCUCA, the “pre-steady-state target cleavage rate” value came to 0.00154 ± 0.006.

As to GGAGACCAUACUAUACAACCUACUACCACA, the “pre-steady-state target cleavage rate” value is 0.00574 ± 0.002.

In the case of GGAGACCUAUCUAUACAACCUAAUACCUCA, the “pre-steady-state target cleavage rate” value is 0.00285 ± 0.0041.

In the case of GGAGAGGAUACUUAUACAACCUACUACCUCA, the “pre-steady-state target cleavage rate” value was 0.112 ± 0.045.

Consider GGAGUGGAUACUGUACAACCUACUACCUCA, for which the “pre-steady-state target cleavage rate” value is 0.109 ± 0.039.

Consider GGAGACCUAUGAUAUGUUCCUAUCUACCUCA, for which the “pre-steady-state target cleavage rate” value turned out to be 0.000124 ± 0.019.

As to GGAGUGGUUAGUAUACAACCUACUACCUCA, the “pre-steady-state target cleavage rate” value came to 0.00533 ± 0.0036.

Turning to GGAGACCUAUCUAUACAACCUACAACCACA, the “pre-steady-state target cleavage rate” value worked out at 0.00118 ± 0.0066.
